Measured values taken from patent US5098839.
Protein sequences can lack the tags named with them.

Molecular target: T1, PacI restriction endonuclease (Pseudomonas alcaligenes) (UniProt D5MNX7)
T1 sequence (looked up, limits assumed): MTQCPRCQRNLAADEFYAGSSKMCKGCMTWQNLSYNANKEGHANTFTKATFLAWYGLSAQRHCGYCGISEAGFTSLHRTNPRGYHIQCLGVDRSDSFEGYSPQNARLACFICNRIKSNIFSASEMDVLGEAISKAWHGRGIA
Assay: enzyme reaction in vitro
Conditions: 10 mM Tris-HCl, 10 mM MgCl2, 1 mM DTT, BSA, 37 C in activity assay; cleavage site mapped on primer-extended plasmid DNA; purified native protein; only the site is given

TTAATTAA (double strand) [PacI recognition site in pvPACI-IIB plasmid]
activity on this sequence: active
